Results: PubChem BioAssay AID540276 (National Center for Advancing Translational Sciences (NCATS), 2011)
The campaign covered roughly 300,000 compounds. About 5,400 (1.8%) were called active. The shares of active, inactive and inconclusive entries below differ from those in the screen. The call rests on the fitted dose curve; tested in HEK293 cells. Where the call is inconclusive, the potency comes from a doubtful curve fit.

Assay: qHTS for inhibitors of binding or entry into cells for Marburg Virus
Conditions: Marburg virus pseudotyped entry inhibition, cell reporter; activity change, negative = inhibition: at 37.8 µM (top of the series) unless noted
On the % scale 0 is the no-effect control and ±100 the full control effect; potency means the concentration at half of the fitted maximal effect.

**Q.** Which Potency does the source give for `Cc1ccc(C2C3=C(CC(C)(C)CC3=O)Nc3onc(C)c32)cc1` (stereo unspecified) here?
**A.** inconclusive: 3.55 µM [inhibitor, single point]

**Q.** For `CCOc1ccc(N=C(NN)c2ccc3ccccc3n2)cc1`, which Potency is on record?
**A.** inconclusive: 23.1 µM [inhibitor, single point]

**Q.** With `COc1cc(Cl)c(C)cc1Nc1nc2ccccc2nc1NS(=O)(=O)c1ccccc1` as the molecule, how does the Potency read?
**A.** inconclusive: 3.16 µM [activator, partial curve, poor fit]

**Q.** With `Fc1ccccc1Sc1ccccc1CNC1=NCCN1` as the molecule, how does the “activity change, negative = inhibition” value read?
**A.** inactive: -8.06%

**Q.** With `COc1ccc(C(=O)Nc2ccc(NC(=O)c3cccc(OC)c3)cn2)cc1` as the molecule, how does the Potency read?
**A.** inconclusive: 35.5 µM [inhibitor, single point]

**Q.** With `COc1ccccc1CNC(=O)Nc1cccs1` as the molecule, how does the “activity change, negative = inhibition” value read?
**A.** inactive: 3.37%

**Q.** With `Cc1ccc(-n2nc(CO)c(C(=O)NCC(c3ccccc3)c3ccccc3)n2)cc1` as the molecule, how does the “activity change, negative = inhibition” value read?
**A.** inactive: -0.354% [at 46.1 µM]

**Q.** For `COc1ccc(-c2oc3ncnc(NCCCN4CCOCC4)c3c2-c2ccc(OC)cc2)cc1`, which Potency is on record?
**A.** inconclusive: 25.9 µM [inhibitor, partial curve, poor fit]

**Q.** For `Cc1ccccc1NC(=O)CSc1nc(N)c(C#N)c(-c2cccs2)c1C#N`, which Potency is on record?
**A.** inconclusive: 12.6 µM [inhibitor, partial curve, poor fit]

**Q.** With `CCOC(=O)C1(CCc2ccccc2)CCN(C2CCSCC2)CC1` as the molecule, how does the Potency read?
**A.** active: 10 µM

**Q.** For `O=C(COC(=O)c1ccccc1)NC1CCCC1`, which Potency is on record?
**A.** inconclusive: 2 µM [inhibitor, partial curve, poor fit]

**Q.** For `Cc1ccc2c(c1)C1CN(C)CCC1N2C(=O)Nc1cccc(C(F)(F)F)c1` (stereo unspecified), which Potency is on record?
**A.** inconclusive: 35.5 µM [inhibitor, single point]

**Q.** For `O=C(NN1C(=O)c2ccccc2NC1c1ccc([N+](=O)[O-])o1)c1ccc([N+](=O)[O-])cc1` (stereo unspecified), which Potency is on record?
**A.** inconclusive: 20 µM [inhibitor, partial curve, poor fit]

**Q.** With `CCOC(=O)c1cc(CNC(=O)c2c(C)oc3c2CCCC3)c(C)o1` as the molecule, how does the Potency read?
**A.** inconclusive: 2.82 µM [inhibitor, partial curve, poor fit]

**Q.** Which “activity change, negative = inhibition” value does the source give for `COc1ccccc1CC(=O)Nc1ccccc1O` here?
**A.** inactive: 26.8%

**Q.** With `CCC1(C2=NCCN2)Cc2ccccc2O1` (stereo unspecified) as the molecule, how does the activity change, negative = inhibition read?
**A.** inconclusive: 3.13% [inhibitor]

**Q.** With `Cc1ccc(C)c(NC(=O)c2cc3c([nH]c4ccccc43)c(C)n2)c1` as the molecule, how does the “activity change, negative = inhibition” value read?
**A.** inactive: 2.24%

**Q.** Which Potency does the source give for `COc1ccc(C(=O)COC(=O)[C@H](C)Nc2ccc(C(F)(F)F)cc2[N+](=O)[O-])cc1` here?
**A.** inconclusive: 2.24 µM [inhibitor, single point]

**Q.** With `COc1ccc([N+](=O)[O-])cc1NC(=O)C1CCCNC1=O` (stereo unspecified) as the molecule, how does the Potency read?
**A.** inconclusive: 35.5 µM [inhibitor, single point]

**Q.** With `CC(C)(C)SCCNC(=O)CN(c1ccccc1)S(=O)(=O)c1ccc(F)cc1` as the molecule, how does the “activity change, negative = inhibition” value read?
**A.** inactive: -6.42% [at 46.1 µM]

**Q.** For `COc1cccc(N2CCN(CC(=O)NC(=O)NCc3ccco3)CC2)c1`, which Potency is on record?
**A.** inconclusive: 0.562 µM [activator, full curve, poor fit]

**Q.** For `Cc1nc2ccc3nc(NC(=O)c4ccco4)sc3c2s1`, which Potency is on record?
**A.** inconclusive: 0.501 µM [activator, partial curve, poor fit]

**Q.** Which Potency does the source give for `FC(F)(F)c1cc(-c2ccco2)nc(NCCc2ccccc2)n1` here?
**A.** inconclusive: 0.184 µM [activator, single point]

**Q.** Which “activity change, negative = inhibition” value does the source give for `NC(=O)NC(=O)Nc1ccccc1Cl` here?
**A.** inactive: 9.8%

**Q.** With `CCC(C(=O)NC1CCCC1)n1c2ccccc2c2nc(=O)cc(C)n21` (stereo unspecified) as the molecule, how does the “activity change, negative = inhibition” value read?
**A.** inactive: -28.5% [at 46.1 µM]

**Q.** For `CCCN(CCC)C(=O)Cn1c(=O)n(-c2ccc(C)cc2)c(=O)c2ccc(C(=O)NCc3ccccc3Cl)cc21`, which “activity change, negative = inhibition” value is on record?
**A.** inactive: 23.2% [at 46.1 µM]

**Q.** With `c1ccc2cc(OCc3nc4ccccc4[nH]3)ccc2c1` as the molecule, how does the Potency read?
**A.** inconclusive: 29.1 µM [inhibitor, single point]

**Q.** For `CCCCN1C(=O)C2C(C(=O)Nc3cccc(OC)c3)C3C=CC2(O3)C1C(=O)NC1CCCCC1C` (stereo unspecified), which “activity change, negative = inhibition” value is on record?
**A.** inactive: -17.9%

**Q.** For `Cc1ccc2nc(NC(=O)C3CCN(S(=O)(=O)c4cccs4)CC3)sc2c1`, which Potency is on record?
**A.** inconclusive: 25.9 µM [inhibitor, single point]

**Q.** With `C#CCOc1ccccc1C(N)=O` as the molecule, how does the “activity change, negative = inhibition” value read?
**A.** inactive: 0.2%

**Q.** For `NS(=O)(=O)c1ccc(Sc2ccccn2)c([N+](=O)[O-])c1`, which “activity change, negative = inhibition” value is on record?
**A.** inactive: -1.78% [at 46.1 µM]

**Q.** With `CCOC(=O)C(CO)(NC(C)=O)C(=O)OCC` as the molecule, how does the “activity change, negative = inhibition” value read?
**A.** inactive: -0.942%

**Q.** With `Cn1c(SCCSc2nnc(-c3ccccc3)n2C)nnc1-c1ccccc1` as the molecule, how does the “activity change, negative = inhibition” value read?
**A.** inactive: 4.92%

**Q.** Which Potency does the source give for `CCS(=O)(=O)c1ccc2oc(SCC(=O)NCCc3ccccc3)nc2c1` here?
**A.** inconclusive: 14.1 µM [inhibitor, single point]

**Q.** For `CCCCC[C@]12Cc3cc(OC)c(OC)cc3[C@H](O1)c1c(cc(C)n(-c3ccccc3)c1=O)O2`, which Potency is on record?
**A.** inactive

**Q.** Which Potency does the source give for `Cn1ncc(Cl)c1C(=O)N1CCN(c2ccc(Cl)c(Cl)c2)CC1` here?
**A.** inconclusive: 0.562 µM [inhibitor, single point]

**Q.** For `Cc1ccc(C)c(CN2C(=O)c3ccccc3S(=O)(=O)c3ccc(C(=O)N4CCCC4)cc32)c1`, which Potency is on record?
**A.** inconclusive: 8.91 µM [inhibitor, partial curve, poor fit]

**Q.** Which Potency does the source give for `CCOC(=O)c1cnc2c(C)cccc2c1NCCc1ccc(OC)c(OC)c1` here?
**A.** inactive

**Q.** For `CCOc1ccc(S(=O)(=O)NCC2(N3CCCCC3)CCCCC2)cc1`, which Potency is on record?
**A.** inconclusive: 35.5 µM [inhibitor, single point]

**Q.** Which Potency does the source give for `O=C(c1cccs1)N(Cc1ccc(F)cc1)C1CCS(=O)(=O)C1` (stereo unspecified) here?
**A.** inconclusive: 5.01 µM [inhibitor, single point]

**Q.** Which Potency does the source give for `COc1cc2c(cc1OC)C(C)N(C(=O)[C@@H](NC(=O)c1ccccc1)C(C)C)CC2` (stereo partly specified) here?
**A.** inconclusive: 3.16 µM [inhibitor, single point]

**Q.** Which “activity change, negative = inhibition” value does the source give for `Cc1ccccc1NC(=O)Cc1nnc(N)s1` here?
**A.** inactive: 18.6%

**Q.** For `O=C(O)c1cc(Cl)c2c(c1)[C@@H]1C=CC[C@@H]1[C@H](c1ccc(S(=O)(=O)N3CCOCC3)cc1)N2`, which Potency is on record?
**A.** inconclusive: 3.16 µM [activator, partial curve]

**Q.** With `CCOc1ccc(OCC)c(NC(=O)C(NS(=O)(=O)c2ccc(Br)s2)c2ccccc2)c1` (stereo unspecified) as the molecule, how does the “activity change, negative = inhibition” value read?
**A.** inactive: -6.4% [at 46.1 µM]

**Q.** For `O=C(CC1C(=O)N(c2ccc(F)cc2)C(=O)N1Cc1ccc2c(c1)OCO2)Nc1ccc(F)cc1` (stereo unspecified), which “activity change, negative = inhibition” value is on record?
**A.** inactive: -7.12% [at 46.1 µM]

**Q.** Which Potency does the source give for `COc1ccc(C2=[N+](C)CCn3cccc32)c(OC)c1` here?
**A.** inconclusive: 15.8 µM [inhibitor, single point]
